According to US20110097341A1 (Pfizer, published 2011):
These are yes or no findings as the source states them, for the method shown. Some results given as binding are weak or reduced against the parent protein; the word gives no strength.

Amino acid sequences for entries named in this document (tags omitted). Residues count along the entry.
UniProt P01138, residues 122-241: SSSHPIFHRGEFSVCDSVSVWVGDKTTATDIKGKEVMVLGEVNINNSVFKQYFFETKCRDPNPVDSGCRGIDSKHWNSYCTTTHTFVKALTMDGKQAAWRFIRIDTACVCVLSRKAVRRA

Target: human NGF (human, UniProt P01138 122-241)
Assay: SPR (BIAcore) affinity screening of L1/L2 library clones on human NGF

Row | Binder | binding
1 | L81 (Fab, V domains shown) VH: QVQLQESGPGLVKPSETLSLTCTVSGFSLIGYDINWIRQPPGKGLEWIGMIWGDGTTDYNSALKSRVTISKDTSKNQFSLKLSSVTAADTAVYYCARGGYYYGTSYYFDYWGQGTLVTVS VL: DIQMTQSPSSLSASVGDRVTITCRAFQAISNQLNWYQQKPGKAPKLLIYYISRFHTGVPSRFSGSGSGTDFTFTISSLQPEDIATYYCQQSKTLPYTFGQGTKLEIKR | binds
2 | L97 (Fab, V domains shown) VH: QVQLQESGPGLVKPSETLSLTCTVSGFSLIGYDINWIRQPPGKGLEWIGMIWGDGTTDYNSALKSRVTISKDTSKNQFSLKLSSVTAADTAVYYCARGGYYYGTSYYFDYWGQGTLVTVS VL: DIQMTQSPSSLSASVGDRVTITCRASQSISNQLNWYQQKPGKAPKLLIYYVSRFHSGVPSRFSGSGSGTDFTFTISSLQPEDIATYYCQQSKTLPYTFGQGTKLEIKR | binds

The remaining lines, values ahead:

Row | binding | Binder
3 | binds | L129 (Fab, V domains shown) VH: QVQLQESGPGLVKPSETLSLTCTVSGFSLIGYDINWIRQPPGKGLEWIGMIWGDGTTDYNSALKSRVTISKDTSKNQFSLKLSSVTAADTAVYYCARGGYYYGTSYYFDYWGQGTLVTVS VL: DIQMTQSPSSLSASVGDRVTITCRASQSISNNLNWYQQKPGKAPKLLIYYTSRFHSGVPSRFSGSGSGTDFTFTISSLQPEDIATYYCQQSKTLPYTFGQGTKLEIKR
4 | binds | L208 (Fab, V domains shown) VH: QVQLQESGPGLVKPSETLSLTCTVSGFSLIGYDINWIRQPPGKGLEWIGMIWGDGTTDYNSALKSRVTISKDTSKNQFSLKLSSVTAADTAVYYCARGGYYYGTSYYFDYWGQGTLVTVS VL: DIQMTQSPSSLSASVGDRVTITCRASQYISNHLNWYQQKPGKAPKLLIYYTSRFHSGVPSRFSGSGSGTDFTFTISSLQPEDIATYYCQQSKTLPYTFGQGTKLEIKR
